In the supplement of paper PMC10849652:
The list shows a part of the results.

The chains behind the UniProt entries cited, without tags or fusion partners. Where a name states a change or a piece, a line headed by the entry shows the natural chain unless it says otherwise.
UniProt Q08945, whole entry, looked up: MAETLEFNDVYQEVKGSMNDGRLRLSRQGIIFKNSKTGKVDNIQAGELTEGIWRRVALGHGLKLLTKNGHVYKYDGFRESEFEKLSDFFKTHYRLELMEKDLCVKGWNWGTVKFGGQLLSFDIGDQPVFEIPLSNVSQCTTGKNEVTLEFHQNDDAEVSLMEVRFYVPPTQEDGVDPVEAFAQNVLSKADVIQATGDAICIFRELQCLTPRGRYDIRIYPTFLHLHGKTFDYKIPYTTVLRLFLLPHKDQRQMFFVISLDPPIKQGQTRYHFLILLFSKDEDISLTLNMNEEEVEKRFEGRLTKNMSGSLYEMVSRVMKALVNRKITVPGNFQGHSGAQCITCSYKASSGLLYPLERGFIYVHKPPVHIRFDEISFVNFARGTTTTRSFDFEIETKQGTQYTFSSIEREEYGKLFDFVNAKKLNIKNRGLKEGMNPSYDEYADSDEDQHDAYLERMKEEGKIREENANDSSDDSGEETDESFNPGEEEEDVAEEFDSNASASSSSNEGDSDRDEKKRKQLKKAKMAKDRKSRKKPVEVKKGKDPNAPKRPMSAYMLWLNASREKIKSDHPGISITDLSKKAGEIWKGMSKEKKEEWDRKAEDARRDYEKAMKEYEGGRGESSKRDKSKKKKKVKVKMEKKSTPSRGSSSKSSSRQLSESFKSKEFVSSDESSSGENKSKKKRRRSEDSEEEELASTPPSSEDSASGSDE
UniProt O00506, whole entry, looked up: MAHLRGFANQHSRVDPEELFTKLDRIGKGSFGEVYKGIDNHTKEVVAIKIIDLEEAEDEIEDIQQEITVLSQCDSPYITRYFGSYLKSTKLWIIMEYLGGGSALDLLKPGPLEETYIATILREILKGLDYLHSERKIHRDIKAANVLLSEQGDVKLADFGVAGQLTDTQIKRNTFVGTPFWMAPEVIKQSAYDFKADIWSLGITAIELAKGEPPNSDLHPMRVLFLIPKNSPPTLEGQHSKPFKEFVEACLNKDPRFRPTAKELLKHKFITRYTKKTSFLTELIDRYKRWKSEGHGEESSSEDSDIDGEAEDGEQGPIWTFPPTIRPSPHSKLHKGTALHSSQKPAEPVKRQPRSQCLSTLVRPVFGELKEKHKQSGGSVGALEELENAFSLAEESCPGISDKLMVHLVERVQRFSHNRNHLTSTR
UniProt Q8TCT7: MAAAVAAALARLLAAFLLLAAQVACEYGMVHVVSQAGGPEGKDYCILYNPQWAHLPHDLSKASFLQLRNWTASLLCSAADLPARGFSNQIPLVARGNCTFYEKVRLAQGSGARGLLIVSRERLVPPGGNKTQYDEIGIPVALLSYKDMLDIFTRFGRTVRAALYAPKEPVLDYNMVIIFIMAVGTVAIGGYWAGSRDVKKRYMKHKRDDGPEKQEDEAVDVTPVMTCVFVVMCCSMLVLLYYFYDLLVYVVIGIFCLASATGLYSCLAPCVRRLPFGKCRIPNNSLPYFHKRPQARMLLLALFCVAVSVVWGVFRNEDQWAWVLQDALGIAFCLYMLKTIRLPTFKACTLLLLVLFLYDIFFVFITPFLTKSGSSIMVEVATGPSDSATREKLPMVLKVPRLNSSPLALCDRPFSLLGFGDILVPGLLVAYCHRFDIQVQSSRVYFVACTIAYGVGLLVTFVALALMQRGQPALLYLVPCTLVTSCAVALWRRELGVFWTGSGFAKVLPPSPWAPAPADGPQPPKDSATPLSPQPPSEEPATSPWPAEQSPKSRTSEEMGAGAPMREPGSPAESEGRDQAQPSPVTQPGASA
UniProt P15907: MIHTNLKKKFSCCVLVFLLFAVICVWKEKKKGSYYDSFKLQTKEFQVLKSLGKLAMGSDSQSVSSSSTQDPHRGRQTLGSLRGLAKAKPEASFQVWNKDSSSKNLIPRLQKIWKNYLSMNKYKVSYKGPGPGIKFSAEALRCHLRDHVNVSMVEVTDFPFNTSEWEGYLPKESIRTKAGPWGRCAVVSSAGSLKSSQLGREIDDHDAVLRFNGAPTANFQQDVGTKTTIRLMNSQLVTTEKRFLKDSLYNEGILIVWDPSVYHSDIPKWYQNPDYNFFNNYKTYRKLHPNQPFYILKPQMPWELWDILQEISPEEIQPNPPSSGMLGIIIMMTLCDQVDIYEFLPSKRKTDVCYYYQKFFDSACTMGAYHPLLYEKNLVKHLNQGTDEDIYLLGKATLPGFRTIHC
UniProt Q13586, whole entry, looked up: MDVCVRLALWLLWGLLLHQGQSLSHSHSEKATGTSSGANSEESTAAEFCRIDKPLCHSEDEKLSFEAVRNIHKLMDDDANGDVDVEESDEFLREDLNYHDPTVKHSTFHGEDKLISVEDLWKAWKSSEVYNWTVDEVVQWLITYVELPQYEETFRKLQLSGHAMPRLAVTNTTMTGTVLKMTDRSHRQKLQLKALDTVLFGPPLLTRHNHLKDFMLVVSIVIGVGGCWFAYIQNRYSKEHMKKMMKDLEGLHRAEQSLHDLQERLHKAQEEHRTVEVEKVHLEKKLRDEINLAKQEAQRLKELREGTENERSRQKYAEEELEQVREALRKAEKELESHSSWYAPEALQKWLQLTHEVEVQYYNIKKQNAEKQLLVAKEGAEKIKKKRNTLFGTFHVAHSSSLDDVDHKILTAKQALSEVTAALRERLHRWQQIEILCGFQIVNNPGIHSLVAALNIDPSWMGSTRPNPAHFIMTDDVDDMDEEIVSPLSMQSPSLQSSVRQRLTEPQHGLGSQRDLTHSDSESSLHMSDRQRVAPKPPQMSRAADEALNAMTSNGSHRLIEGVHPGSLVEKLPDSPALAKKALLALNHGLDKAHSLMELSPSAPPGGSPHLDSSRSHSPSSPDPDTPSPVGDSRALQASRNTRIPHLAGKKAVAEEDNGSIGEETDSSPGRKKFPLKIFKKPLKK
UniProt Q9UBP0: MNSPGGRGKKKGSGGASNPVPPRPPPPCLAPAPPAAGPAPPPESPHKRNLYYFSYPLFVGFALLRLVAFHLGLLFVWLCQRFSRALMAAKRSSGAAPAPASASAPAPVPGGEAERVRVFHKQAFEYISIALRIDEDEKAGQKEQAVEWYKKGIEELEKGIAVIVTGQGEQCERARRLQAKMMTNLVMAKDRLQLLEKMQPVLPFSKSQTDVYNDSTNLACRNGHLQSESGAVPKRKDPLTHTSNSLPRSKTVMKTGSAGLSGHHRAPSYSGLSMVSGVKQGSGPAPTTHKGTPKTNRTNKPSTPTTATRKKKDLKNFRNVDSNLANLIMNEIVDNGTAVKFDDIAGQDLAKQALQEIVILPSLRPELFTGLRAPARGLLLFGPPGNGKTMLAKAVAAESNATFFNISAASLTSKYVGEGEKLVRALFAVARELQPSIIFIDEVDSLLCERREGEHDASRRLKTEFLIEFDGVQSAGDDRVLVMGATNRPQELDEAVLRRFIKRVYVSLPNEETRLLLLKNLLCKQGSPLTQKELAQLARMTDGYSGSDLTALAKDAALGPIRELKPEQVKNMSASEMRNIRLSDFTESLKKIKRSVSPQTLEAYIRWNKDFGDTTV
UniProt Q16629: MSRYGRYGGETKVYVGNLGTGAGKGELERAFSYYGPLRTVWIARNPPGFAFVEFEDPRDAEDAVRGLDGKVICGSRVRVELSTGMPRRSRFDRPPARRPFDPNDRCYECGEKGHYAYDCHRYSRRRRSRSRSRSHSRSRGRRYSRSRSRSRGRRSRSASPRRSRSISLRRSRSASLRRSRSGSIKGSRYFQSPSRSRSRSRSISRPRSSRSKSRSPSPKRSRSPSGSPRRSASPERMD
UniProt P78362, whole entry, looked up: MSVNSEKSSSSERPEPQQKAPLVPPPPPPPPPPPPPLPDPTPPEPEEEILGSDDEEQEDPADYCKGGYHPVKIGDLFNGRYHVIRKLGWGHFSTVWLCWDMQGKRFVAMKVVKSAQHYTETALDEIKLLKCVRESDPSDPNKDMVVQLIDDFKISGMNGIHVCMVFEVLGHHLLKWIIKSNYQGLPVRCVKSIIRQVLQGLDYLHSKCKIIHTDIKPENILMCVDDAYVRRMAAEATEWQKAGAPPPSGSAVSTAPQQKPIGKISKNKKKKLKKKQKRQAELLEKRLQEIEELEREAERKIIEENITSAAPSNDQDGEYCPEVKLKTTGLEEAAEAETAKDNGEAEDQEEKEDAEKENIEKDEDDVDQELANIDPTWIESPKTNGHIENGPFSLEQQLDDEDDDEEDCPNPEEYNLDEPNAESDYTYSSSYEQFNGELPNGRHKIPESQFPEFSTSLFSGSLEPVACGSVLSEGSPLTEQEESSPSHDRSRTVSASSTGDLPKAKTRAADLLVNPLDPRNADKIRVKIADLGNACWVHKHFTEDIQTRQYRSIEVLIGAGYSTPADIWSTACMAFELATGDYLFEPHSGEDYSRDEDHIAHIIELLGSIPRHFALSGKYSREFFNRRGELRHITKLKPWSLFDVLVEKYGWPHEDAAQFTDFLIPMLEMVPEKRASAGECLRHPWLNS
UniProt P52630: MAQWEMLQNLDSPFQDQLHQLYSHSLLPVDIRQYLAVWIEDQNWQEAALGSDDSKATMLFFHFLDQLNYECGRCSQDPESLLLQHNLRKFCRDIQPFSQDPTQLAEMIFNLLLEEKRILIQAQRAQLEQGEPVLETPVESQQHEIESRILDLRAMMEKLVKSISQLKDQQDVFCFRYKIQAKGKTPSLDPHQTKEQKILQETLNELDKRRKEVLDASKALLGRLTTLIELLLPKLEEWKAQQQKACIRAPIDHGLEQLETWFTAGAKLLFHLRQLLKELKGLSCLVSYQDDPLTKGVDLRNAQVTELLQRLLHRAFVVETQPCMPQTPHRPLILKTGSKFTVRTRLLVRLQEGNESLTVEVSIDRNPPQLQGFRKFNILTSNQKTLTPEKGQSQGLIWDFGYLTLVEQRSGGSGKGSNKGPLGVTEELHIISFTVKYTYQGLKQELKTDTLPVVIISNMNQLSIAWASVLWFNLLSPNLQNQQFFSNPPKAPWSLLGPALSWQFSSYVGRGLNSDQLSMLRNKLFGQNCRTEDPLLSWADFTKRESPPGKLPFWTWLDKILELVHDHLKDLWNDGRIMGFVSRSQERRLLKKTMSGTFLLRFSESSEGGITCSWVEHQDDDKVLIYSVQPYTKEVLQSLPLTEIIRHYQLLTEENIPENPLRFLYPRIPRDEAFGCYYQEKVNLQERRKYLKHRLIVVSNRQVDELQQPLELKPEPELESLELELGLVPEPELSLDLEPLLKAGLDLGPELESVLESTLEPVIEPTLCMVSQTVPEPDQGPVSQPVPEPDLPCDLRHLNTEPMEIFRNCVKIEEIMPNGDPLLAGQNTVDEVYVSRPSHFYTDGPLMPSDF
UniProt P61011: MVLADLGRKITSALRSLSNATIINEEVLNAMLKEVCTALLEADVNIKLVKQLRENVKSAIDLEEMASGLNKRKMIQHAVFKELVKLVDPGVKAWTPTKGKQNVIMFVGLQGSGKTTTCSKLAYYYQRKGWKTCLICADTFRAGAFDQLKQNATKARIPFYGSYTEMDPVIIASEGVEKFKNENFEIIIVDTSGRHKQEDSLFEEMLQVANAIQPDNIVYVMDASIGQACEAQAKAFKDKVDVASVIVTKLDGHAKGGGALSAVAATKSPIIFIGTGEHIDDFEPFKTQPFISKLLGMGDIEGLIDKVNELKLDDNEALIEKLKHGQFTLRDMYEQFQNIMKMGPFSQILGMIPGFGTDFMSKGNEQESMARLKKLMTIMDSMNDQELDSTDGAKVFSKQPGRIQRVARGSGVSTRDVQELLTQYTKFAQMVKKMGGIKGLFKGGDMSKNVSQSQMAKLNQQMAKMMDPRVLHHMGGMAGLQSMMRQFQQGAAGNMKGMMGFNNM
UniProt Q13243: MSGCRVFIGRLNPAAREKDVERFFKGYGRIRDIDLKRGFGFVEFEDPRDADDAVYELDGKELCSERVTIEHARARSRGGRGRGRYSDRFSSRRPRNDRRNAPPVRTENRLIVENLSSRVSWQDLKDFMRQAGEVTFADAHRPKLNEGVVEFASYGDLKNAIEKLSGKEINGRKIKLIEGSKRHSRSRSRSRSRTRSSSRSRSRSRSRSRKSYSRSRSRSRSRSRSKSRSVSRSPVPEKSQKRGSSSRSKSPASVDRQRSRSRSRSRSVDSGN
UniProt Q9HD15: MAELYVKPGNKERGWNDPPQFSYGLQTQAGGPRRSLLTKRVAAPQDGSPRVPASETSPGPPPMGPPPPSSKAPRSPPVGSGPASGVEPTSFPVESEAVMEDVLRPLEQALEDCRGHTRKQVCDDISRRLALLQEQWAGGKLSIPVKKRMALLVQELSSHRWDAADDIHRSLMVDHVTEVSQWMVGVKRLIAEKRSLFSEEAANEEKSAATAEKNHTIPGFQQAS
UniProt Q8WW59: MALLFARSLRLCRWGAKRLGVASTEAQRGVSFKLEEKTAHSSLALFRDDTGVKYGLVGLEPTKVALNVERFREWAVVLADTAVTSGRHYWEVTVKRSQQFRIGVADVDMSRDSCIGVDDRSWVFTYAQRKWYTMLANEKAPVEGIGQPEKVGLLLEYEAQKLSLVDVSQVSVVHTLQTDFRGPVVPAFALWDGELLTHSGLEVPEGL
UniProt P61009: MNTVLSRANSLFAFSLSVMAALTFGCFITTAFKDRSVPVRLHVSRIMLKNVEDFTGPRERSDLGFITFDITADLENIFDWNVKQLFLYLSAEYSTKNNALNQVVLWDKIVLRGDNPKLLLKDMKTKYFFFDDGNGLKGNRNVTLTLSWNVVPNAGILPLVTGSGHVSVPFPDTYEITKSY

Compound: CC1=C(SC2=C1C(=N[C@H](C3=NN=C(N32)C)CC(=O)N)C4=CC=C(C=C4)Cl)C
Test: log2 fold change, soluble protein after heating vs DMSO (PISA); higher = thermal stabilisation; K562 cells, 10 uM, 30 min; active = over 0.2 and 3.5 SD of the protein, either way, in both replicates (recomputed)
In short: (§1)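 Values are thermal stability changes relative to control samples and are taken from duplicates. They are stated as log2 fold changes. Before quantification by TMTpro 16plex LC-MS/MS with equalised channel sums, K562 cells at 2×10^6 cells/mL were treated with 10 μM compound for 30 min, heated in aliquots for 3 min across 48°C-58°C, pooled, extracted in PBS with 0.5% NP-40 at 4°C, and centrifuged at 21,000xg for 90 min to give the soluble supernatant.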

Target	log2 fold change
SPATA33 isoform 2 (UniProt Q96N06)	inactive: 0.013
SRC isoform 2 (UniProt P12931)	inactive: 0.181
SPC24 (UniProt Q8NBT2)	inactive: 0.048
SPG7 (UniProt Q9UQ90)	inactive: 0.043
SSRP1 (UniProt Q08945)	inactive: 0.023
STK25 (UniProt O00506)	inactive: 0.111
SPART (UniProt Q8N0X7)	inactive: 0.043
SRCAP (UniProt Q6ZRS2)	inactive: 0.013
SPPL2B (UniProt Q8TCT7)	inactive: 0.132
ST6GAL1 (UniProt P15907)	inactive: 0.012
STIM1 (UniProt Q13586)	inactive: 0.044
SQSTM1 (UniProt Q13501)	inactive: 0.097
SPTAN1 isoform 2 (UniProt Q13813)	inactive: -0.012
SPAST (UniProt Q9UBP0)	inactive: 0.026
SPHK1 isoform 2 (UniProt Q9NYA1)	inactive: 0.089
SRPK1 (UniProt Q96SB4)	inactive: -0.293

Target	log2 fold change
SPECC1 (UniProt Q5M775)	inactive: -0.087
SPTBN1 (UniProt Q01082)	inactive: -0.033
SRSF7 (UniProt Q16629)	inactive: -0.171
STIP1 isoform 2 (UniProt P31948)	inactive: 0.025
SRPK2 isoform 2 (UniProt P78362)	inactive: -0.19
STAT2 (UniProt P52630)	inactive: -0.203
ST3GAL2 (UniProt Q16842)	inactive: 0.006
SRP54 (UniProt P61011)	inactive: 0.02
SRSF5 (UniProt Q13243)	inactive: -0.278
SRA1 (UniProt Q9HD15)	inactive: 0.049
SSX2 (UniProt Q16385)	inactive: -0.024
SPRYD4 (UniProt Q8WW59)	inactive: 0.036
SPCS3 (UniProt P61009)	inactive: -0.015
STAM2 (UniProt O75886)	inactive: 0.005
STK11IP (UniProt Q8N1F8)	inactive: 0.026
SRP68 (UniProt Q9UHB9)	inactive: 0.022

Compound: CC1=C2C(=CC=C1)N=C(N(C2=O)C3=CC=CC=C3C)CN4C=NC5=C(N=CN=C54)N
Test: as above
In short: as §1

Target	log2 fold change
SPATA33 isoform 2 (UniProt Q96N06)	inactive: 0.009
SRC isoform 2 (UniProt P12931)	inactive: 0.125
SPC24 (UniProt Q8NBT2)	inactive: 0.047
SPG7 (UniProt Q9UQ90)	inactive: 0.019
SSRP1 (UniProt Q08945)	inactive: 0.087
STK25 (UniProt O00506)	inactive: 0.015
SPART (UniProt Q8N0X7)	inactive: 0.065
SRCAP (UniProt Q6ZRS2)	inactive: 0.101
SPPL2B (UniProt Q8TCT7)	inactive: 0.049
ST6GAL1 (UniProt P15907)	inactive: 0.033
STIM1 (UniProt Q13586)	inactive: 0.008
SQSTM1 (UniProt Q13501)	inactive: -0.128
SPTAN1 isoform 2 (UniProt Q13813)	inactive: 0.04
SPAST (UniProt Q9UBP0)	inactive: 0.117
SPHK1 isoform 2 (UniProt Q9NYA1)	inactive: 0.03
SRPK1 (UniProt Q96SB4)	inactive: -0.4

Target	log2 fold change
SPECC1 (UniProt Q5M775)	inactive: 0.105
SPTBN1 (UniProt Q01082)	inactive: 0.078
SRSF7 (UniProt Q16629)	inactive: -0.093
STIP1 isoform 2 (UniProt P31948)	inactive: 0.019
SRPK2 isoform 2 (UniProt P78362)	inactive: -0.299
STAT2 (UniProt P52630)	inactive: 0.173
ST3GAL2 (UniProt Q16842)	inactive: 0.011
SRP54 (UniProt P61011)	inactive: 0.028
SRSF5 (UniProt Q13243)	inactive: -0.059
SRA1 (UniProt Q9HD15)	inactive: 0.068
SSX2 (UniProt Q16385)	inactive: 0.038
SPRYD4 (UniProt Q8WW59)	inactive: 0.064
SPCS3 (UniProt P61009)	inactive: -0.009
STAM2 (UniProt O75886)	inactive: 0.014
STK11IP (UniProt Q8N1F8)	inactive: -0.02
SRP68 (UniProt Q9UHB9)	inactive: 0.039

Compound: Cc1sc2c(c1C)C(c1ccc(Cl)cc1)=N[C@@H](CC(=O)OC(C)(C)C)c1nnc(C)n1-2
Test: as above
In short: as §1

Target	log2 fold change
SPATA33 isoform 2 (UniProt Q96N06)	inactive: 0.042
SRC isoform 2 (UniProt P12931)	inactive: 0.042
SPC24 (UniProt Q8NBT2)	inactive: -0.017
SPG7 (UniProt Q9UQ90)	inactive: -0.02
SSRP1 (UniProt Q08945)	inactive: -0.051
STK25 (UniProt O00506)	inactive: -0.019
SPART (UniProt Q8N0X7)	inactive: 0.018
SRCAP (UniProt Q6ZRS2)	inactive: -0.005
SPPL2B (UniProt Q8TCT7)	inactive: 0.024
ST6GAL1 (UniProt P15907)	inactive: -0.018
STIM1 (UniProt Q13586)	inactive: -0.014
SQSTM1 (UniProt Q13501)	inactive: 0.096
SPTAN1 isoform 2 (UniProt Q13813)	inactive: 0.016
SPAST (UniProt Q9UBP0)	inactive: -0.016
SPHK1 isoform 2 (UniProt Q9NYA1)	inactive: -0.024
SRPK1 (UniProt Q96SB4)	inactive: 0.191

Target	log2 fold change
SPECC1 (UniProt Q5M775)	inactive: -0.012
SPTBN1 (UniProt Q01082)	inactive: 0.027
SRSF7 (UniProt Q16629)	inactive: 0.209
STIP1 isoform 2 (UniProt P31948)	inactive: -0.007
SRPK2 isoform 2 (UniProt P78362)	inactive: 0.186
STAT2 (UniProt P52630)	inactive: 0.107
ST3GAL2 (UniProt Q16842)	inactive: 0.005
SRP54 (UniProt P61011)	inactive: -0.005
SRSF5 (UniProt Q13243)	inactive: 0.062
SRA1 (UniProt Q9HD15)	inactive: -0.059
SSX2 (UniProt Q16385)	inactive: -0.021
SPRYD4 (UniProt Q8WW59)	inactive: 0.007
SPCS3 (UniProt P61009)	inactive: 0.008
STAM2 (UniProt O75886)	inactive: 0.016
STK11IP (UniProt Q8N1F8)	inactive: 0.05
SRP68 (UniProt Q9UHB9)	inactive: 0.092
